Reference: patent US7368107B2 (Dainippon Sumitomo Pharma Co., Ltd., priority 1998, dated 2008)

How the values were obtained:
[1] = general procedure: Fmoc solid-phase peptide synthesis; Fmoc-Phe-Alko Resin (0.67 mmol/g); conditions: whole synthesis, scale 50 mg resin
[2] = peptide made by a vendor (peptide synthesis; Fmoc-Phe-Alko Resin); conditions: whole synthesis, scale 100 mg resin
[3] = general procedure: Fmoc solid-phase peptide synthesis; Fmoc-Phe Alko Resin; conditions: whole synthesis, scale 100 mg resin
[4] = general procedure: Fmoc solid-phase peptide synthesis; Fmoc-Phe-Alco Resin; conditions: whole synthesis, scale 100 mg resin

Question: Which isolated mass [1] does the source give for PEPTIDE1{G.F.M.C.Q.G.G.D.F}$$$$V2.0 here?
Answer: Its isolated mass is 9.7 mg.

Question: Which isolated mass [2] does the source give for KFHRVIKDF here?
Answer: Its isolated mass is 11.7 mg.

Question: Which isolated mass [3] does the source give for KYHRVIKDF here?
Answer: Its isolated mass is 44.9 mg.

Question: Which isolated mass [4] does the source give for DYMIQGGDF here?
Answer: The isolated mass was 12.8 mg.

Question: Which isolated mass [2] does the source give for DFMIQGGDF here?
Answer: The isolated mass was 3.6 mg.

For some assays here: Strings that start with PEPTIDE1 are HELM notation: dots part the residues, brackets hold end groups and non-standard residues. Where no end group is shown, it is not given here.
